These are yes or no findings as the source states them, for the method shown. In cells and extracts the contact can be indirect. Some results given as binding are weak or reduced against the parent protein; the word gives no strength. Where a sequence is shown, tags or fusion partners need not be part of it.
Molecular target: T1, GST-PEG10 fusion protein (human) (UniProt Q86TG7)
T1 sequence (looked up): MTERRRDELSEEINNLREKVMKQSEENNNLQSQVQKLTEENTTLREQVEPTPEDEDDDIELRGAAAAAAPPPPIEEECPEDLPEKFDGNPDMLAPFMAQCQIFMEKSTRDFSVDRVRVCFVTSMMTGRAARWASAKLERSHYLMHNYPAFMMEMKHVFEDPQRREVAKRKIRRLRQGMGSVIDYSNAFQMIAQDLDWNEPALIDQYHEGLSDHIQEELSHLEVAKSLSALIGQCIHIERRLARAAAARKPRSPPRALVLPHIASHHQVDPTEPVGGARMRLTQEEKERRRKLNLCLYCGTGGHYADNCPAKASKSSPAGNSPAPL
Assay: in vitro pull-down: GST-PEG10 on Glutathione Sepharose 4B beads, lysate of HEK293-SIAH2 cells, immunoblot with anti-Flag and anti-PEG10

- binding: binds
B1: Flag-tagged SIAH-2 protein expressed in HEK293 cells (protein, human, UniProt O43255 1-324, looked up, not shown: small tags and cut ends)
chain: MSRPSSTGPSANKPCSKQPPPQPQHTPSPAAPPAAATISAAGPGSSAVPAAAAVISGPGGGGGAGPVSPQHHELTSLFECPVCFDYVLPPILQCQAGHLVCNQCRQKLSCCPTCRGALTPSIRNLAMEKVASAVLFPCKYATTGCSLTLHHTEKPEHEDICEYRPYSCPCPGASCKWQGSLEAVMSHLMHAHKSITTLQGEDIVFLATDINLPGAVDWVMMQSCFGHHFMLVLEKQEKYEGHQQFFAIVLLIGTRKQAENFAYRLELNGNRRRLTWEATPRSIHDGVAAAIMNSDCLVFDTAIAHLFADNGNLGINVTISTCCP

Source: patent US20070155689A1
